Data published in paper PMC2289879.
Results are given in words; binding and its absence hold for the method and conditions named. Binding seen in cells or lysates may run through a third protein. Some results given as binding are weak or reduced against the parent protein; the word gives no strength.

By UniProt entry, the sequences of proteins in these tests, tags left out. Where a name states a change or a piece, a line headed by the entry shows the natural chain unless it says otherwise.
UniProt Q96EB6: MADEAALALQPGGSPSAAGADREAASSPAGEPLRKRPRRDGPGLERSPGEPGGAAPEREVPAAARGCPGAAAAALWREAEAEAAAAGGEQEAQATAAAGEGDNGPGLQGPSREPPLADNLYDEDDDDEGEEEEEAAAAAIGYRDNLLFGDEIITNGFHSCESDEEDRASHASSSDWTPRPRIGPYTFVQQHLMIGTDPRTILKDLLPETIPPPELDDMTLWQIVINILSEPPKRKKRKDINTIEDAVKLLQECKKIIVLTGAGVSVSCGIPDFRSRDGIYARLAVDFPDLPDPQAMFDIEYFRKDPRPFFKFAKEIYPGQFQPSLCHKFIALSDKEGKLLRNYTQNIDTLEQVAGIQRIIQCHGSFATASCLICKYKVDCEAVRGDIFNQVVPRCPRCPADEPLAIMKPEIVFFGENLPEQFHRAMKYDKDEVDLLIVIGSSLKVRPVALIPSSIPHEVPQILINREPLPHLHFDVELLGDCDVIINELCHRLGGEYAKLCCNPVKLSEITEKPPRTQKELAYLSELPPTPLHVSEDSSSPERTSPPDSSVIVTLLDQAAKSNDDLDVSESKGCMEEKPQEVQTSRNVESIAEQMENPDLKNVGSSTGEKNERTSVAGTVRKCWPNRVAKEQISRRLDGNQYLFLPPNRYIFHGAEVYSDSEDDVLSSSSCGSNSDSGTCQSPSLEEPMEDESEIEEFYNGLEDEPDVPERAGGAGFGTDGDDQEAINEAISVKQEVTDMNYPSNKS
UniProt P35222: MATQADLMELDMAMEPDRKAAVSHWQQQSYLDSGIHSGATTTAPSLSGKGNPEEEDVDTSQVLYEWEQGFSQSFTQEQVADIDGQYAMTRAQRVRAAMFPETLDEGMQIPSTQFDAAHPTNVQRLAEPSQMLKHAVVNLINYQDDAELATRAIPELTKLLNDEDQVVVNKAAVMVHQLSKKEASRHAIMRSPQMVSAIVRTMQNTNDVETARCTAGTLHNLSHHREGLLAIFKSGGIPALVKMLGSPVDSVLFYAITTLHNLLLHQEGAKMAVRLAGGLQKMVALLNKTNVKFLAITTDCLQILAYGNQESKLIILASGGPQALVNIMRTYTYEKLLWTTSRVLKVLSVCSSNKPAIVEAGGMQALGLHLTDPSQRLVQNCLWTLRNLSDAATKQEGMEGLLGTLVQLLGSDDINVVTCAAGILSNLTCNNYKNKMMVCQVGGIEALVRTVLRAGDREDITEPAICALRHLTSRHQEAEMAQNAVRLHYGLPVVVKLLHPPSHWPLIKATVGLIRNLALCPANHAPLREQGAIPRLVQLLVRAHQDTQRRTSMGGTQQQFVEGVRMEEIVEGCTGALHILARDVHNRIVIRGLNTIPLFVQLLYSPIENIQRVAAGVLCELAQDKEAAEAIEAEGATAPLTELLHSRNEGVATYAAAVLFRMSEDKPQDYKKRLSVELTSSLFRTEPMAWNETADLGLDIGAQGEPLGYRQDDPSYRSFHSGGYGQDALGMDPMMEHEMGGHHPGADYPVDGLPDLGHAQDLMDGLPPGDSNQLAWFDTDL

What was measured:
FLAG-tagged SIRT1 = FLAG-tagged SIRT1 (UniProt Q96EB6); assay: co-IP; 293T cells co-transfected with HA-S33Y-β-catenin and FLAG-SIRT1 or vector control; IP with anti-FLAG (blot anti-HA) or with anti-HA (blot anti-FLAG); NP-40 extraction buffer (50 mM Tris-HCl pH 8.0, 150 mM NaCl, 1% NP-40) with 10 mM nicotinamide and 5 µM TSA; IP 2 hr, 4 washes
[1] = target: endogenous SIRT1 (human (endogenous in LN-CAP)) (UniProt Q96EB6); assay: co-IP; endogenous proteins in LN-CAP cell extracts; IP with anti-SIRT1 antibody or normal rabbit IgG as control, blot anti-β-catenin; NP-40 extraction buffer (50 mM Tris-HCl pH 8.0, 150 mM NaCl, 1% NP-40)

HA-S33Y-β-catenin (from UniProt P35222 1-781)
binding (FLAG-tagged SIRT1): binds

endogenous β-catenin (from UniProt P35222 1-781)
binding [1]: binds
